Experimental data: PubChem BioAssay AID1117319 (Southern Research Institute, 2015)
The whole screen tested about 260,000 compounds, of which about 1,500 (0.58%) were called active. Inconclusive results, whose numbers are uncertain, are shown with a selection of clear calls.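 How the source made its calls: active means inhibition above a set limit at one or more doses, reproduced on every date tested; inconclusive means results disagree between test dates, or hit never tested in dose response; inactive means the rest.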

By UniProt entry, the sequences of proteins in these tests, tags left out. Where a name states a change or a piece, a line headed by the entry shows the natural chain unless it says otherwise.
UniProt P69720: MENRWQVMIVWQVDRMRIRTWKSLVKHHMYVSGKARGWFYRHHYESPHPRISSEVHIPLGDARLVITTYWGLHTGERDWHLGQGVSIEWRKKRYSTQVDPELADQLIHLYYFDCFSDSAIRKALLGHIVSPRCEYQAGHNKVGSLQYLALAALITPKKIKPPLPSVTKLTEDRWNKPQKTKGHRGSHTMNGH
UniProt P69721: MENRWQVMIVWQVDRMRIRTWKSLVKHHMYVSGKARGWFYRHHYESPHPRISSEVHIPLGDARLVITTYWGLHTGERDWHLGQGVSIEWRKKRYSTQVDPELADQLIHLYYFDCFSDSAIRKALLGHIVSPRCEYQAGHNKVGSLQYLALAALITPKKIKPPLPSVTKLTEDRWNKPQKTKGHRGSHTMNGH
UniProt P69722: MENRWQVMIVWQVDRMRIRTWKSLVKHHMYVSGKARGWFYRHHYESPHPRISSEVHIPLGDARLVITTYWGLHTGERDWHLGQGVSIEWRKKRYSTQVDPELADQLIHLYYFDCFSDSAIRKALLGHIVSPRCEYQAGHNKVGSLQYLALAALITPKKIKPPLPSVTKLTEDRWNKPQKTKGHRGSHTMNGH
UniProt P69723: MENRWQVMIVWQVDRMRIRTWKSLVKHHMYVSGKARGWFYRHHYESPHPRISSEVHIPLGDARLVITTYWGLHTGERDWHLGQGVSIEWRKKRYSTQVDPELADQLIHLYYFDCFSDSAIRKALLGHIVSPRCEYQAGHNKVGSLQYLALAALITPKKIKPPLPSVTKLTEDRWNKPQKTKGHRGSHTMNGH
UniProt Q9HC16: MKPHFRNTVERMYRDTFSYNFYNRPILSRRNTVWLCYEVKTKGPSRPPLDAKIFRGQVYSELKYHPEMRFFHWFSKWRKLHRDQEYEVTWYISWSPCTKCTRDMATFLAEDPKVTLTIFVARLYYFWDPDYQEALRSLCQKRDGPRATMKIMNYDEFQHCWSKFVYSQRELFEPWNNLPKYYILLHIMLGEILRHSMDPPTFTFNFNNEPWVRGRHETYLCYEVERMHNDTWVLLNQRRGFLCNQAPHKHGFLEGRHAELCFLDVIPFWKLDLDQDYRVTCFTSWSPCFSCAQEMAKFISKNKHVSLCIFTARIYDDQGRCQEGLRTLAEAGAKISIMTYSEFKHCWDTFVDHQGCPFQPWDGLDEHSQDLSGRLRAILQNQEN

These compounds were tested against Virion infectivity factor (Human immunodeficiency virus type 1 group M subtype B (isolate BH10)) + Virion infectivity factor (Human immunodeficiency virus type 1 group M subtype B (isolate BRU/LAI)) + Virion infectivity factor (Human immunodeficiency virus type 1 group M subtype B (isolate PCV12)) + Virion infectivity factor (Human immunodeficiency virus type 1 group M subtype B (isolate HXB2)) + DNA dC->dU-editing enzyme APOBEC-3G (Homo sapiens) (UniProt P69720+P69721+P69722+P69723+Q9HC16) (assay: inhibitors of Vif binding to APOBEC3G peptide, primary screen, biochemical, TR-FRET, GST-Vif 1-94, biotin-A3G peptide, dose response retest (AID 1117319;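 further: Vif residues 1-94 fused to GST binding biotinylated APOBEC3G peptide 110-148; 0% = full assay without inhibitor and 100% = GST in place of GST-Vif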)). Details: hits give high values.
In the case of `CCN(CC)c1ccc(C(NC(C)=O)NC(C)=O)cc1`, the inhibition is reported as inconclusive: 25.8%. For `O=c1cc(O)nc(SCc2ccccc2)[nH]1`, the inhibition was inconclusive: 21.6%. With `COC(=O)c1cc(C(=O)OC)cc(N2C(=O)CC(NNC(=O)c3ccccc3Br)C2=O)c1` (stereo unspecified) the inhibition was inconclusive: 58.4%. In the case of `O=C(NC(CO)(CO)CO)c1coc(=O)c(Br)c1`, the inhibition is reported as inconclusive: 39.9%. For `COc1ccccc1-c1c(C)nn2c(C)cc(C)nc12`, the inhibition was inconclusive: 38.3%. In the case of `O=C(NCc1ccncc1)C1CCCCC1`, the inhibition is reported as inconclusive: 33.3%. With `O=C(NC(=S)Nc1ccccc1N1CCCC1)c1cccc(F)c1` the inhibition was inactive: 5.9%. With `CC(=O)Nc1ccc(S(=O)(=O)Nc2ccc(S(=O)(=O)N3CCCC3)cc2)cc1` the inhibition was inconclusive: 35.7%. For `Cc1ccc(N2C(=O)c3cccc4c(C(=O)O)ccc(c34)C2=O)cc1`, the inhibition was inconclusive: 45.6%. For `O=C(O)C1CCCCC1C(=O)NCCc1ccncc1` (stereo unspecified), the inhibition was inconclusive: 29.1%. `C/C(=N\OCC(=O)Nc1ccc(OC(F)(F)F)cc1)c1ccc2c(c1)OCCO2` was tested, and the inhibition was inconclusive: 46.4%. For `CCCCn1c(/C=C/c2ccco2)nc2ccccc21`, the inhibition was inconclusive: 42.9%. With `CCOc1cc(CNCC2CCCO2)cc(Br)c1OCC(N)=O` (stereo unspecified) the inhibition was inconclusive: 38.9%. In the case of `O=C(O)C1CC(=O)N(c2ccc(OCc3ccc(Cl)cc3Cl)cc2)C1` (stereo unspecified), the inhibition is reported as inactive: 4.2%. In the case of `CC(C)CNS(=O)(=O)c1ccc(C(=O)Nc2ccc3c(c2)OCCO3)cc1`, the inhibition is reported as inconclusive: 35.7%. For `Cc1ncc(CO)c(/C=N/NC(=O)c2cc(Br)ccc2O)c1O`, the inhibition was inactive: 11%. `CCn1cc(CN2CCC(n3nccc3NC(=O)c3ccc4c(c3)OCO4)CC2)c(C)n1` was tested, and the inhibition was inconclusive: 49.7%. With `O=C1/C(=C/c2ccccc2)CSc2sccc21` the inhibition was inconclusive: 34.9%. With `CCOc1cc(C(=O)OCC(=O)Nc2cc(C)on2)cc(OCC)c1OCC` the inhibition was inactive: -2.84%. In the case of `CN(C)N1C(N)=C(C#N)C(c2cccnc2)C2=C1CC(C)(C)CC2=O` (stereo unspecified), the inhibition is reported as inactive: -8.23%. `CNCc1ccccc1OCc1ccc(F)cc1` was tested, and the inhibition was inactive: -4.9%. `CCN1C(=O)C(CC(=O)Nc2c(C)cccc2C)Nc2cc(S(=O)(=O)N(C)C)ccc21` (stereo unspecified) was tested, and the inhibition was inconclusive: 47.1%. For `COc1cc(OC)cc(C(=O)N[C@H](C(=O)Nc2nnc(C3CC3)s2)C(C)C)c1`, the inhibition was inconclusive: 35.7%. With `Cn1c(CN2CCCCC2)nc2cc(NS(=O)(=O)c3ccc(F)cc3)ccc21` the inhibition was inconclusive: 58%. `CCN1CCN(C(=O)c2nn(C)c3c2CS(=O)(=O)c2ccccc2-3)CC1` was tested, and the inhibition was inconclusive: 48.8%. In the case of `COc1cc2c3c(c1OC)C1(C=CC(=O)C=C1)CC3N(C(C)=O)CC2` (stereo unspecified), the inhibition is reported as inactive: 25.2%. With `CCN(CC)c1cccc(OC2=NS(=O)(=O)c3ccccc32)c1` the inhibition was inconclusive: 45.2%. `CN1C(=O)S/C(=C\c2ccccc2OCc2ccc(C(=O)O)cc2)C1=O` was tested, and the inhibition was inconclusive: 44.3%. For `O=C(NC1CCCCC1)C(=S)N1CCCC1`, the inhibition was inconclusive: 59.7%. In the case of `N#Cc1cc2c(nc1SCc1ccncc1)CCC2`, the inhibition is reported as inconclusive: 58.7%. For `COc1cc(OC)c(C2=NOC(C(=O)Nc3ccc4c(c3)OCO4)C2)cc1Cl` (stereo unspecified), the inhibition was inconclusive: 38.3%. In the case of `Cc1ccc(N=Cc2c(O)n(-c3ccc4c(c3)OCO4)c(=O)c3ccccc23)cc1`, the inhibition is reported as inconclusive: 10.3%. With `CCOc1cccc(N2C(=O)CC(N3CCN(c4nc5ccccc5s4)CC3)C2=O)c1` (stereo unspecified) the inhibition was inactive: -1.33%. In the case of `COc1ccc(CCn2c(O)c(C=Nc3cccc(F)c3)c(=O)[nH]c2=O)cc1OC`, the inhibition is reported as inactive: 22.7%. With `CCc1ccc(NC(=O)/C(C#N)=C/c2cn(CC(=O)O)c3ccccc23)cc1` the inhibition was inconclusive: 41.9%. With `CC1(OC(=O)C2CCCC2)C(=O)C=C2C=C(c3ccsc3)N(C(CO)CO)C=C2C1=O` (stereo unspecified) the inhibition was inactive: 15.2%. With `COc1cccc(C(=O)Nc2cc3c(cc2Cl)OCCCO3)c1` the inhibition was inconclusive: 39.9%. With `Cc1ccc(S(=O)(=O)N(CC(=O)NC2CCCCCC2)c2ccccc2F)cc1` the inhibition was inconclusive: 35.9%. For `Cc1nn(-c2ccccc2)c(C)c1/C=N/NC(=O)c1cc(-c2cccc3ccccc23)n[nH]1`, the inhibition was inconclusive: 61.3%. `O=C(COC(=O)c1cc2ccccc2cc1O)NC(=O)NCc1ccco1` was tested, and the inhibition was inconclusive: 49.1%. In the case of `O=C(CNc1ccc2c(c1)OCO2)N/N=C\c1cn(Cc2ccccc2)c2ccccc12`, the inhibition is reported as inconclusive: 34.9%. For `CC(=O)Nc1ccc(NC(=O)C2CCCN2C(=O)NC2CCCCC2)cc1` (stereo unspecified), the inhibition was inconclusive: 41.8%. `CCC(C)NC(=O)C1CCC(=O)N(c2cc(OC)c(OC)c(OC)c2)C1c1ccc(OC)cc1` (stereo unspecified) was tested, and the inhibition was inconclusive: 42.5%. In the case of `O=C(Nc1ncc(Cc2ccc(SC(F)F)cc2)s1)c1ccccc1`, the inhibition is reported as inconclusive: 58.3%. `COc1ccc2[nH]c(=O)c(C(=O)O)cc2c1` was tested, and the inhibition was inconclusive: 64.8%. In the case of `Oc1ccc(C2=Nn3c(nnc3-c3ccco3)SC2)cc1O`, the inhibition is reported as inconclusive: 46.6%. `CN(C)c1ccc(N=Nc2ccccc2C(=O)OCC(=O)Nc2ccccc2C(F)(F)F)cc1` was tested, and the inhibition was inconclusive: 50.1%. In the case of `O=C(NN1CCOCC1)c1cc(-c2ccc(Cl)c(Cl)c2)nc2ccccc12`, the inhibition is reported as inactive: -15.2%. `c1cc2c3c(cccc3c1)NC1(CCCCCC1)N2` was tested, and the inhibition was inconclusive: 36.4%. `NS(=O)(=O)c1cc(Br)c2c(c1)S(=O)(=O)NCN2` was tested, and the inhibition was inactive: -0.53%. In the case of `Nc1c(S(=O)(=O)c2ccccc2)c2nc3ccccc3nc2n1Cc1ccco1`, the inhibition is reported as inconclusive: 41.5%. `CCCOc1nc2ccccc2cc1/C=C/C(=O)O` was tested, and the inhibition was inconclusive: 34.9%. With `O=C(OCC#CCSc1nnc(-c2ccc([N+](=O)[O-])cc2)o1)c1cccs1` the inhibition was inconclusive: 48.5%. With `Cn1c(=O)c2c(-c3ccccc3)n(-c3ccccc3O)cc2n(C)c1=O` the inhibition was inconclusive: 34.5%. `COCCn1nnnc1CN(CCCN1CCOCC1)Cc1cc2c(C)ccc(C)c2[nH]c1=O` was tested, and the inhibition was inconclusive: 52%. With `Cn1cc(CCNCc2cn[nH]c2-c2ccc(-c3ccccc3)cc2)cn1` the inhibition was inactive: -3.24%. With `COc1ccc2c(c1)O[C@H](c1ccc3c(c1)OCO3)[C@@H](OC(=O)N[C@H](C)C1CCCCC1)C2=O` the inhibition was inconclusive: 49.7%. With `O=C(CSc1nc(-c2ccco2)cc(C(F)(F)F)n1)N1CCSCC1` the inhibition was inconclusive: 33.6%. In the case of `O=C(c1cccc(Cl)c1)N1CCN(Cc2ccncc2)CC1`, the inhibition is reported as inconclusive: 60.7%. With `CC(C)OCCCNC(=O)c1ccc2c(=O)n(Cc3ccc4c(c3)OCO4)c(=S)[nH]c2c1` the inhibition was inconclusive: 58.9%. `CCOC(=O)N1CCN(C(=O)CSc2nnc(-c3cccc(Cl)c3)o2)CC1` was tested, and the inhibition was inconclusive: 37.2%. For `Cc1onc(-c2c(Cl)cccc2Cl)c1C(N)=O`, the inhibition was inactive: 3.21%. `Nc1nn2cc(-c3ccc(Br)cc3)nc2c2ccccc12` was tested, and the inhibition was inconclusive: 36.2%. `O=C(CSc1nnc(SCc2ccccc2)s1)N/N=C/C=C\c1ccco1` was tested, and the inhibition was inconclusive: 50.2%. `COc1ccccc1/C=C/C=c1\sc2nc(=O)c(Cc3ccccc3)nn2c1=O` was tested, and the inhibition was inactive: 26.2%. In the case of `COc1cc([N+](=O)[O-])ccc1N=Nc1c(N)[nH]n(-c2ccccc2)c1=O`, the inhibition is reported as inconclusive: 49%. `Cc1ccc(Cn2c(=N)c(C(=O)NCc3ccco3)cc3c(=O)n4ccccc4nc32)cc1` was tested, and the inhibition was inconclusive: 54.4%. In the case of `O=C(NCCCO)c1ccc(CSc2nc3ccccc3c(=O)[nH]2)cc1`, the inhibition is reported as inconclusive: 39%. With `Cc1cc(C(=O)CN2C(=O)C(=O)N(C)C2=O)c(C)n1-c1cccc(S(=O)(=O)N2CCOCC2)c1` the inhibition was inconclusive: 42.6%. In the case of `Cn1cc(C(=O)Nc2ccc(Cl)cc2)c(C(F)(F)F)n1`, the inhibition is reported as inactive: -6.34%. With `CC(C)=CC(=O)OCC(=O)Nc1ncc(Cl)c(C)c1Cl` the inhibition was inconclusive: 46.1%. In the case of `Cc1ccc(S(=O)(=O)N2CCN(C(=O)c3ccccn3)CC2)cc1`, the inhibition is reported as inconclusive: 52.6%. In the case of `Cc1cc(C)c(C)c(Oc2ncnc(N)c2[N+](=O)[O-])c1`, the inhibition is reported as inconclusive: 35.7%. For `COc1ccc(N(CC(=O)NCc2ccccc2)C(=O)CCC(=O)Nc2cc(C)ccn2)c(OC)c1`, the inhibition was inconclusive: 54.3%. For `CCCN1CCN(C(=O)C(NC(=O)c2ccco2)C(C)C)CC1` (stereo unspecified), the inhibition was inconclusive: 46.6%. In the case of `CCOC(=O)C1(C)C=C(Nc2ccc(O)cc2)C(=O)N1c1ccc(O)cc1` (stereo unspecified), the inhibition is reported as inconclusive: 61.6%. For `CN1CCC(NC(=O)c2cccs2)CC1`, the inhibition was inconclusive: 49.1%. `Cc1cc(=O)[nH]c(N/N=C/c2c(O)n(-c3ccccc3)c(=O)c3ccccc23)n1` was tested, and the inhibition was inconclusive: 45.8%. With `O=c1c2ccccc2nc(SCc2cc([N+](=O)[O-])cc3c2OCOC3)n1-c1ccccc1` the inhibition was inconclusive: 61.7%. With `COc1ccc(C)cc1NC(=O)C1CCN(S(=O)(=O)c2cccc3cccnc23)CC1` the inhibition was inconclusive: 41.6%. With `CC[C@H](C)C(=O)O[C@H]1C[C@@H](C)C=C2C=C[C@H](C)[C@H](CC[C@@H]3C[C@@H](O)CC(=O)O3)[C@H]21` the inhibition was inconclusive: 44.5%. With `Cc1ccc2c(CN3CCN(S(=O)(=O)/C=C/c4ccccc4)CC3)cc(=O)oc2c1` the inhibition was inconclusive: 34.2%. In the case of `COc1ccc(-c2cc(C(=O)N3CCCCCC3)no2)cc1`, the inhibition is reported as inconclusive: 49.2%. With `COc1ccc(NS(=O)(=O)c2ccc(N3CCOCC3)c(NC(=O)c3ccccc3Br)c2)cc1` the inhibition was inconclusive: 60.7%. With `CCOC(=O)c1nc(C)nc(Sc2n[nH]c(-c3cc(C(F)(F)F)cc(C(F)(F)F)c3)n2)c1C` the inhibition was inconclusive: 35%. In the case of `Cc1nn(Cc2cccc(C(=O)NC(C)c3ccc(C(C)(C)C)cc3)c2)c(C)c1[N+](=O)[O-]` (stereo unspecified), the inhibition is reported as inconclusive: 39.5%.
